No constants are given. Whether binding was seen depends on the method and setting. Binding seen in cells or lysates may run through a third protein. Some results given as binding are weak or reduced against the parent protein; the word gives no strength.
Molecular target: MDM2 (UniProt Q00987)
Assay: co-IP; overexpression of both NBPF1 and MDM2 in HEK293T cells; data not shown; bait not stated

By UniProt entry, the sequences of proteins in these tests, tags left out.
UniProt Q00987: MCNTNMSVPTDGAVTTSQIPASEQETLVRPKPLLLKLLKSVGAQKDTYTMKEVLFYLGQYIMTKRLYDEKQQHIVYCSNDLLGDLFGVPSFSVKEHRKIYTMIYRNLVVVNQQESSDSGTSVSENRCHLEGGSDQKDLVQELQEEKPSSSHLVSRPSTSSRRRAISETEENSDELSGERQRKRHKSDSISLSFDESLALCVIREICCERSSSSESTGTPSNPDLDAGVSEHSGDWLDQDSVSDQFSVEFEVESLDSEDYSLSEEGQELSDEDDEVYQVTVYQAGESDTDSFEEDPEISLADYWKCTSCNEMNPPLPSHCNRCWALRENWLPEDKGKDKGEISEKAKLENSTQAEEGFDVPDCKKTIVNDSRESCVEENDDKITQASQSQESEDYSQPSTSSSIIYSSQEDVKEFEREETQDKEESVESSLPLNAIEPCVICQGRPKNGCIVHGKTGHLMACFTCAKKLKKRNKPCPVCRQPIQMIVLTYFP

binding: binds weakly
B1: NBPF1 (Neuroblastoma Breakpoint Family, member 1) (protein, UniProt Q3BBV0 1-1214)
chain: MVVSAGPWSSEKAETNILEINEKLRPQLAENKQQFRNLKEKCFVTQLAGFLANRQKKYKYEECKDLIKFMLRNERQFKEEKLAEQLKQAEELRQYKVLVHSQERELTQLREKLREGRDASRSLNQHLQALLTPDKPDKSQGQDLQEQLAEGCRLAQQLFQKLSPENDEDEDEDVQVEEAEKVLESSAPREVQKAEESKVPEDSLEECAITCSNSHSPCDSNQPHKNINITFEEDKVNSTLVVDRESSHDECQDAVNILPVPGPTSSATNVSMVVSAGPLSSEKAEMNILEINEKLHPQLAEKKQQFRNLKEKCFVTQLACFLANQQNKYKYEECKDLIKSMLRNERQFKEEKLAEQLKQAEELRQYKVLVHSQERELTQLREKLREGRDASRSLNQHLQALLTPDKPDKSQGQDLQEQLAEGCRLAQQLFQKLSPENDEDEDEDVQVEEAEKVLESSAPREVQKAEESKVPEDSLEECAITCSNSHGPCDSNQPHKNINITFEEDKVNSALVVDRESSHDECQDAVNILPVPGPTSSATNVSMVVSAGPLSSEKAEMNILEINEKLHPQLAEKKQQFRNLKEKCFVTQLACFLANQQNKYKNEECKDLIKSMLRNERQFKEEKLAEQLKQAEELRQYKVLVHSQERELTQLREKLREGRDASCSLNQHLQALLTPDEPDKSQGQDLQEQLAEGCRLAQHLVQKLSPENDNDDDEDVQVEVAEKVQKSSAPREMPKAEEKEVPEDSLEECAITCSNSHGPYDSNQPHRKTKITFEEDKVDSTLIGSSSHVEWEDAVHIIPENESDDEEEEEKGPVSPRNLQESEEEEVPQESWDEGYSTLSIPPEMLASYKSYSGTFHSLEEQQVCMAVDIGGHRWDQVKKEDQEATGPRLSRELLDEKGPEVLQDSLDRCYSTPSGYLELTDSCQPYRSAFYILEQQRVGWALDMDEIEKYQEVEEDQDPSCPRLSRELLDEKEPEVLQDSLDRCYSTPSGYLELPDLGQPYRSAVYSLEEQYLGLALDVDRIKKDQEEEEDQGPPCPRLSRELLEAVEPEVLQDSLDRCYSTPSSCLEQPDSCLPYGSSFYALEEKHVGFSLDVGEIEKKGKGKKRRGRRSTKKRRRRGRKEGEEDQNPPCPRLSGMLMEVEEPEVLQDSLDRCYSTPSMYFELPDSFQHYRSVFYSFEEQHISFALDVDNRFLTLMGTSLHLVFQMGVIFPQ

From publication PMC4440459
